Measured values reported in paper PMC10205858.
No constants are given. Whether binding was seen depends on the method and setting. In cells and extracts the contact can be indirect. Some results given as binding are weak or reduced against the parent protein; the word gives no strength. For part of these data: Sequences can lack the tags named with a protein.

Chains of the proteins cited; added tags and fusions are not shown. Lines headed by an entry give the natural chain unless they say otherwise; changes in a name come on top.
UniProt Q15672: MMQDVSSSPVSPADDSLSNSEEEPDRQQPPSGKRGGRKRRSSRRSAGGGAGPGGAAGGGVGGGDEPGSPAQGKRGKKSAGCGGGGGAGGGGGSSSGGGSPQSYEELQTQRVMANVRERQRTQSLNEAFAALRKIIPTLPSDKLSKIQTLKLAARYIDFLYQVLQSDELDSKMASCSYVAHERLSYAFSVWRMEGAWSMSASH
UniProt Q8N1E6: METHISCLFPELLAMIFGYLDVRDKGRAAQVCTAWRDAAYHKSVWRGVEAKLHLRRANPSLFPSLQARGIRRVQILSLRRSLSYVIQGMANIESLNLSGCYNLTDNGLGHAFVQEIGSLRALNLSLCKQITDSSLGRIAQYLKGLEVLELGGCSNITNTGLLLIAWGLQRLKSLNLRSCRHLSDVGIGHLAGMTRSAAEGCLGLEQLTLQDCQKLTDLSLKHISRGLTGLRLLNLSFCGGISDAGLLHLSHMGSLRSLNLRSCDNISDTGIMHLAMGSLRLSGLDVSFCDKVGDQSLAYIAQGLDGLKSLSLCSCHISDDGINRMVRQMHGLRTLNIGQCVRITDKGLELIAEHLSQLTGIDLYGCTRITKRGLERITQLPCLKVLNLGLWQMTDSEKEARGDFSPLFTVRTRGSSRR
UniProt Q9Y297: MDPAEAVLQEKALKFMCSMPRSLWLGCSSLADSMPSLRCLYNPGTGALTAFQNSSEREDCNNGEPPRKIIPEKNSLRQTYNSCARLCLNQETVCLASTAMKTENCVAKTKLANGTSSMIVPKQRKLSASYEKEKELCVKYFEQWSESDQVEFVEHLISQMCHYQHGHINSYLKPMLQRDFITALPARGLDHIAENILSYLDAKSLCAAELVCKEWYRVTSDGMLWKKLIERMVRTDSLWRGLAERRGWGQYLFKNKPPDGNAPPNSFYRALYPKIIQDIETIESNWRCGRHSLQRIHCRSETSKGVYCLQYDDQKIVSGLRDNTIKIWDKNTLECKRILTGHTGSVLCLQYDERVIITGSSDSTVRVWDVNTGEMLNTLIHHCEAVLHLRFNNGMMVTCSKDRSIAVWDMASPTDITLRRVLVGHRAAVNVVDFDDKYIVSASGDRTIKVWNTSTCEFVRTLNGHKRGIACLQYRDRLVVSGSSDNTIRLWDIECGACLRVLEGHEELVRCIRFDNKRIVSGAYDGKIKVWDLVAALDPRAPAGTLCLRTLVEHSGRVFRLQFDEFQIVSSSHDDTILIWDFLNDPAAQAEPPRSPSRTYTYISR

Assays:
[1] = biological target: Twist1 (twist family bHLH transcription factor 1), endogenous (human (endogenous in SUM159PT and MDA-MB231)) (UniProt Q15672); assay: co-IP; endogenous proteins of SUM159PT cells, 20 μM MG132; immunoprecipitated with anti-Twist1 or anti-FBXL14 antibody; with or without transfected GFP-USP13 or USP13 shRNA
GST-USP13 = biological target: T1, GST-USP13 (UniProt Q92995); assay: pull-down; GST pull-down with GST-USP13 or GST as bait; Flag-Twist1 or GFP-Twist1 constructs as prey; details by reference to earlier work; only the target purified
T1 sequence: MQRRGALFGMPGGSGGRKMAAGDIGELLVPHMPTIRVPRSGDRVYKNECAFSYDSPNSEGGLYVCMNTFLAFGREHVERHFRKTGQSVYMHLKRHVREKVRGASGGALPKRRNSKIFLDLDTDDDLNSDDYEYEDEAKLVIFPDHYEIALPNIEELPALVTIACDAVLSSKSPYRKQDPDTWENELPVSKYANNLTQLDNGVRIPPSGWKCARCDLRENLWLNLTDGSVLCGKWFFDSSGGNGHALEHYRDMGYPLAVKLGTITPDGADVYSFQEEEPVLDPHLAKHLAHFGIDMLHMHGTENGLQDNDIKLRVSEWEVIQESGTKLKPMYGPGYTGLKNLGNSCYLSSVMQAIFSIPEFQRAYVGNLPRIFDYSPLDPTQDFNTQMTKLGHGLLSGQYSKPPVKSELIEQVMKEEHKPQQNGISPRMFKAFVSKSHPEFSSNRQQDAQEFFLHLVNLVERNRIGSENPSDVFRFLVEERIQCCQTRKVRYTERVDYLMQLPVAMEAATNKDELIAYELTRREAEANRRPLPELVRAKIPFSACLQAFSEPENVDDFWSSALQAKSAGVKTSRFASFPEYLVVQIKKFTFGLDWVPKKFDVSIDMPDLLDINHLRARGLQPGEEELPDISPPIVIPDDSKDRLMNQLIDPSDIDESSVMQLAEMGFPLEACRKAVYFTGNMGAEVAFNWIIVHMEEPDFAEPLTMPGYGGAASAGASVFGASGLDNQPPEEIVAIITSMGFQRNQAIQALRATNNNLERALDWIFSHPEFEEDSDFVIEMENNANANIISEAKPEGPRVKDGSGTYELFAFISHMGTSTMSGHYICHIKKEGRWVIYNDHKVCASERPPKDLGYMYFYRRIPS

[2] = biological target: Twist1 (twist family bHLH transcription factor 1), endogenous (human (endogenous in SUM159PT and MDA-MB231)) (UniProt Q15672); assay: co-IP; endogenous USP13 and Twist1 each immunoprecipitated from MDA-MB231 and SUM159PT cells; the bound partner detected by Western blotting
Flag-Twist1 [3] = biological target: Flag-Twist1 (UniProt Q15672); assay: co-IP; Flag-Twist1 co-expressed with GFP-USP13 in HEK293T cells; lysates immunoprecipitated with anti-Flag or anti-GFP antibody; Western blotting
Flag-Twist1 [4] = biological target: Flag-Twist1 (UniProt Q15672); assay: co-IP; GFP-USP13 deletion constructs with Twist1; the legend says only detected via Western blotting; cells not named

With “FBXL14, endogenous (from UniProt Q8N1E6 1-418)” the binding [1] was “binds”.

In the case of Flag-Twist1 (from UniProt Q15672 1-202), the binding (GST-USP13) is reported as “binds”.

With “GFP-Twist1 169–202 amino acid fragment (Twist1 WR domain) (from UniProt Q15672 169-202) (domain or fragment)” the binding (GST-USP13) was “binds”.

In the case of “GFP-Twist1, full length (FL) (from UniProt Q15672 1-202)”, the binding (GST-USP13) is reported as “binds”.

With “β-TrCP1, endogenous (from UniProt Q9Y297 1-605)” the binding [1] was “binds”.

B1: USP13 (ubiquitin specific peptidase 13), endogenous (enzyme, UniProt Q92995 1-863)
chain: T1 sequence
For B1, the binding [2] was “binds”.

B2: RNF8, endogenous (protein, UniProt O76064 1-485)
chain: MGEPGFFVTGDRAGGRSWCLRRVGMSAGWLLLEDGCEVTVGRGFGVTYQLVSKICPLMISRNHCVLKQNPEGQWTIMDNKSLNGVWLNRARLEPLRVYSIHQGDYIQLGVPLENKENAEYEYEVTEEDWETIYPCLSPKNDQMIEKNKELRTKRKFSLDELAGPGAEGPSNLKSKINKVSCESGQPVKSQGKGEVASTPSDNLDPKLTALEPSKTTGAPIYPGFPKVTEVHHEQKASNSSASQRSLQMFKVTMSRILRLKIQMQEKHEAVMNVKKQTQKGNSKKVVQMEQELQDLQSQLCAEQAQQQARVEQLEKTFQEEEQHLQGLEIAQGEKDLKQQLAQALQEHWALMEELNRSKKDFEAIIQAKNKELEQTKEEKEKMQAQKEEVLSHMNDVLENELQCIICSEYFIEAVTLNCAHSFCSYCINEWMKRKIECPICRKDIKSKTYSLVLDNCINKMVNNLSSEVKERRIVLIRERKAKRLF
B2 was tested, and the binding [1] was “binds”.

B3: GFP-USP13 (enzyme, UniProt Q92995 1-863)
chain: T1 sequence
B3 was tested, and the binding (Flag-Twist1 [3]) was “binds”.

B4: GFP-USP13 (625–863) (domain or fragment, UniProt Q92995 625-863)
chain: ELPDISPPIVIPDDSKDRLMNQLIDPSDIDESSVMQLAEMGFPLEACRKAVYFTGNMGAEVAFNWIIVHMEEPDFAEPLTMPGYGGAASAGASVFGASGLDNQPPEEIVAIITSMGFQRNQAIQALRATNNNLERALDWIFSHPEFEEDSDFVIEMENNANANIISEAKPEGPRVKDGSGTYELFAFISHMGTSTMSGHYICHIKKEGRWVIYNDHKVCASERPPKDLGYMYFYRRIPS
For B4, the binding (Flag-Twist1 [4]) was “binds”.
